The record followed here is publication PMC8763317.

The chains behind the UniProt entries cited, without tags or fusion partners.
UniProt Q13547: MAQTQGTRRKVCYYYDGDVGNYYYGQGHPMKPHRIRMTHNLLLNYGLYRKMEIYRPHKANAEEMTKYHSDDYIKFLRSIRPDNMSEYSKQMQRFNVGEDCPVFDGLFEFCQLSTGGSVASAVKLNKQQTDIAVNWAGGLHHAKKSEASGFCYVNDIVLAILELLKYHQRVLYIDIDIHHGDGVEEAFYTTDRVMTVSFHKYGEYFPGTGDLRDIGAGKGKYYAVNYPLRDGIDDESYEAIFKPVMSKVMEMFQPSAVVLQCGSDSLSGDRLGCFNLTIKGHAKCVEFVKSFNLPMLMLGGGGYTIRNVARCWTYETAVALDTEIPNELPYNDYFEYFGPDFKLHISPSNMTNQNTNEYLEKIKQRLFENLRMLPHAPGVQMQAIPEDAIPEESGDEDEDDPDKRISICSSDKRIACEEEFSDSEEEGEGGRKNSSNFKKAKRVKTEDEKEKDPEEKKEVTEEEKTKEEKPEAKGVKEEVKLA

Results are given in words; binding and its absence hold for the method and conditions named. Binding seen in cells or lysates may run through a third protein. A yes stands for co-enrichment or nearness to the bait. Other partners may have been found.

This experiment deals with HDAC1-BirA* (UniProt Q13547). The experiment is described as follows: proximity labelling; BioID in HEK293T cells: BirA*-fused bait transiently transfected, 50 uM biotin for 18 hours; lysate sonicated, biotinylated proteins isolated on streptavidin agarose beads, trypsin digest, LC-MS/MS, label free quantitation; enrichment over BirA*-NLS control (Student's t-test, FDR 0.05, S0 = 2); triplicate or quadruplicate.

B1: ELMSAN1 (protein, UniProt Q6PJG2 1-1045)
chain: MNLQAQPKAQNKRKRCLFGGQEPAPKEQPPPLQPPQQSIRVKEEQYLGHEGPGGAVSTSQPVELPPPSSLALLNSVVYGPERTSAAMLSQQVASVKWPNSVMAPGRGPERGGGGGVSDSSWQQQPGQPPPHSTWNCHSLSLYSATKGSPHPGVGVPTYYNHPEALKREKAGGPQLDRYVRPMMPQKVQLEVGRPQAPLNSFHAAKKPPNQSLPLQPFQLAFGHQVNRQVFRQGPPPPNPVAAFPPQKQQQQQQPQQQQQQQQAALPQMPLFENFYSMPQQPSQQPQDFGLQPAGPLGQSHLAHHSMAPYPFPPNPDMNPELRKALLQDSAPQPALPQVQIPFPRRSRRLSKEGILPPSALDGAGTQPGQEATGNLFLHHWPLQQPPPGSLGQPHPEALGFPLELRESQLLPDGERLAPNGREREAPAMGSEEGMRAVSTGDCGQVLRGGVIQSTRRRRRASQEANLLTLAQKAVELASLQNAKDGSGSEEKRKSVLASTTKCGVEFSEPSLATKRAREDSGMVPLIIPVSVPVRTVDPTEAAQAGGLDEDGKGPEQNPAEHKPSVIVTRRRSTRIPGTDAQAQAEDMNVKLEGEPSVRKPKQRPRPEPLIIPTKAGTFIAPPVYSNITPYQSHLRSPVRLADHPSERSFELPPYTPPPILSPVREGSGLYFNAIISTSTIPAPPPITPKSAHRTLLRTNSAEVTPPVLSVMGEATPVSIEPRINVGSRFQAEIPLMRDRALAAADPHKADLVWQPWEDLESSREKQRQVEDLLTAACSSIFPGAGTNQELALHCLHESRGDILETLNKLLLKKPLRPHNHPLATYHYTGSDQWKMAERKLFNKGIAIYKKDFFLVQKLIQTKTVAQCVEFYYTYKKQVKIGRNGTLTFGDVDTSDEKSAQEEVEVDIKTSQKFPRVPLPRRESPSEERLEPKREVKEPRKEGEEEVPEIQEKEEQEEGRERSRRAAAVKATQTLQANESASDILILRSHESNAPGSAGGQASEKPREGTGKSRRALPFSEKKKKTETFSKTQNQENTFPCKKCGR
B1: the binding entry is on record as “binds”.

B2: Sin3B (protein, UniProt O75182 1-1162)
chain: MAHAGGGSGGSGAGGPAGRGLSGARWGRSGSAGHEKLPVHVEDALTYLDQVKIRFGSDPATYNGFLEIMKEFKSQSIDTPGVIRRVSQLFHEHPDLIVGFNAFLPLGYRIDIPKNGKLNIQSPLTSQENSHNHGDGAEDFKQQVPYKEDKPQVPLESDSVEFNNAISYVNKIKTRFLDHPEIYRSFLEILHTYQKEQLNTRGRPFRGMSEEEVFTEVANLFRGQEDLLSEFGQFLPEAKRSLFTGNGPCEMHSVQKNEHDKTPEHSRKRSRPSLLRPVSAPAKKKMKLRGTKDLSIAAVGKYGTLQEFSFFDKVRRVLKSQEVYENFLRCIALFNQELVSGSELLQLVSPFLGKFPELFAQFKSFLGVKELSFAPPMSDRSGDGISREIDYASCKRIGSSYRALPKTYQQPKCSGRTAICKELDHWTLLQGSWTDDYCMSKFKNTCWIPGYSAGVLNDTWVSFPSWSEDSTFVSSKKTPYEEQLHRCEDERFELDVVLETNLATIRVLESVQKKLSRMAPEDQEKFRLDDSLGGTSEVIQRRAIYRIYGDKAPEIIESLKKNPVTAVPVVLKRLKAKEEEWREAQQGFNKIWREQYEKAYLKSLDHQAVNFKQNDTKALRSKSLLNEIESVYDEHQEQHSEGRSAPSSEPHLIFVYEDRQILEDAAALISYYVKRQPAIQKEDQGTIHQLLHQFVPSLFFSQQLDLGASEESADEDRDSPQGQTTDPSERKKPAPGPHSSPPEEKGAFGDAPATEQPPLPPPAPHKPLDDVYSLFFANNNWYFFLRLHQTLCSRLLKIYRQAQKQLLEYRTEKEREKLLCEGRREKGSDPAMELRLKQPSEVELEEYYPAFLDMVRSLLEGSIDPTQYEDTLREMFTIHAYVGFTMDKLVQNIARQLHHLVSDDVCLKVVELYLNEKKRGAAGGNLSSRCVRAARETSYQWKAERCMADENCFKVMFLQRKGQVIMTIELLDTEEAQTEDPVEVQHLARYVEQYVGTEGASSSPTEGFLLKPVFLQRNLKKFRRRWQSEQARALRGEARSSWKRLVGVESACDVDCRFKLSTHKMVFIVNSEDYMYRRGTLCRAKQVQPLVLLRHHQHFEEWHSRWLEDNVTVEAASLVQDWLMGEEDEDMVPCKTLCETVHVHGLPVTRYRVQYSRRPASP
Consider B2, for which the binding result was “binds”.
